Measurements as given in PubChem BioAssay AID1347423 (Functional Genomics Laboratory (NCATS/FGL), 2020).
The campaign covered roughly 52,000 sequences. About 210 (0.4%) were called active.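 Rule for the calls: active = gene whose silencing raises cell survival under the drug, median off-target-corrected z-score across its silencing RNAs 2 or more; inactive = the rest.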 This is one part of the list.

Assay: Resistance to Poly (ADP-Ribose) Polymerase inhibitor: Gene Identification via Genome-wide siRNA Screen
Details: mouse BRCA2 R2336H ES cells, olaparib, CellTiter-Glo viability; active compounds read high
Outline: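 Genome-wide siRNA screen (3 siRNAs/gene, 20 nM) in mouse ES cells carrying hypomorphic BRCA2 R2336H; olaparib 500 nM added 48 h post-transfection, CellTiter-Glo viability 72 h later. Normalized to plate-median negative control; MAD z-scores, gene median, seed-adjusted.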

Sequence	z-score
CGGAGUUGAGCCAGAAAAATT against Fbxo31	inactive: 0.575
GGUGAAGUCUGUGAGCAUUTT against Gna12	inactive: -1.55
GGAGAUUGGUGUUAGUAACTT against Sp7	inactive: 0.083
GGAAGAAAGAGAAAACCUCTT against Slc4a3	inactive: 1.2
GCAAUUCCUGGACAUUUAATT against Prkcd	inactive: 0.415
GACAUACCAGCCGUAUAACTT against Erh	inactive: -2.46
CCGAAAAGUGUGGCGAGAATT against Arid3c	inactive: -1.29
GGUGAAUGUGUGGAUUAUCTT against Itih2	inactive: 0.825
CCGGUCUCAAAAUUAAGAATT against E430004N04Rik	inactive: -0.0641
GGACUCAGGGACCUUAUUATT against Apobec1	inactive: -2.23
GCACGAAUCCUUUGUAUCATT against Spna1	inactive: -1.24
GGACACAGACAUGUAUAAUTT against 9430041O17Rik	inactive: -0.194
GCACAACAUCCCAGAUAAATT against C030011J08Rik	inactive: -0.302
GGGUUUUGCAUUACACAAGTT against Notch3	inactive: 0.339
GGUUAUAGGAAGGAAUUGCTT against 4732456N10Rik	inactive: 0.755
GGAGACUCUACUAAUCAUCTT against Pigh	inactive: 1.66
GUCUAGCACAUUCUUUGGCTT against Olfr1107	inactive: -0.712
GGCAAGAAGUCUGACAACATT against Gng4	inactive: -0.543
GGCAAGAUCAAAGAGAAGATT against Psmc3ip	inactive: -0.949
GCCUGUAGUCAGAUAUUUCTT against Hdgf	inactive: -0.0633
GGGCAAUUUCAAACUAUUATT against Myf5	inactive: 0.759
GGAAUUUCUGCGCACCUAUTT against Catnbip1	inactive: -0.104
GCACUUAUCGACUAUUUCATT against Laf4	inactive: -0.253
CCCACCACUAUUUAUAUGATT against Dlgh2	inactive: -0.134
GGUCAAAGUGAUGCACGCCTT against Sfxn2	inactive: -0.333
GCAGAACCUUAAAAGAAUGTT against Cabyr	inactive: 1.19
GGAACAAUCAAACUGGCUGTT against Cdc2a	inactive: -1.45

Sequence	z-score
GGAAGUCAAGCAUAUUGCCTT against Sntb2	inactive: -0.593
GGAGAAGGAGUGCAAUUCCTT against Ptger3	inactive: -0.0412
GGCCAAUAAUGUGUUUCGUTT against Tyki	inactive: 1.1
GGUUGUAUUAUUGGCUUUGTT against Snrpe	inactive: 0.85
CCAACAGCAACGAUGACAATT against Fmip	inactive: -3.16
GGGCUCUAGCUAAAAACGATT against D13Wsu50e	inactive: 1.79
CCUACAUUAAGCAAGGGACTT against Stk35	inactive: 0.66
CGGCAUCCAUCUUUAGUGUTT against Hrh1	inactive: 0.309
GGAACUAGAAACUUCUUUUTT against B230382K22Rik	inactive: 0.318
CGAAUGUCCUGGAAGCAAATT against Olfr142	inactive: -2.75
GCCACAUUGCUUAUGGCUGTT against 2310016N21Rik	inactive: 0.959
GGCAUGUUUCUUGACUUAATT against Coil	inactive: -1.59
GGUAUUUGUAAAUUUGAGGTT against Spg3a	inactive: -0.249
GGAUUUGUCACCAUUCUGCTT against Peg10	inactive: 0.114
GCCGGUUAUUUAUUUGUCATT against Sostdc1	inactive: 0.288
GGAAUUCACCUUUAAGAUGTT against 1810036H07Rik	inactive: 0.639
GGGUAAAGGAGAUUGUGAUTT against Ppfibp2	inactive: -0.253
GGAACCUAACUAACAAUACTT against Rab14	inactive: 0.681
GGUUUUCUCUAAGCUGAAATT against Lum	inactive: 0.824
GGCUUGAGUUUGAAGAAAUTT against Rb1	inactive: 0.153
GGACAGGUGGUUACCAUAGTT against Arid2	inactive: -0.239
CCCAAGACUGGUCUUCCCATT against Slc12a8	inactive: -0.831
GGCAGUAGUGAACAGAGACTT against 6330509G02Rik	inactive: -0.359
GUCCUGGAUAUGCUCCUGUTT against Ors6	inactive: -0.875
GGCCUAUUACAAGGAAUUCTT against BC020354	inactive: 0.549
GGACAACACAUUUGUGCUCTT against Aps	inactive: -0.0534
GGACGAUGUAUUGUUAUUGTT against Lrp10	inactive: 0.267

Sequence	z-score
GGAGAGCUCUUUACCUAAUTT against Gk-rs1	inactive: -0.116
GGUGCUUCUCUAAGAUAAUTT against 4632434I11Rik	inactive: 1.49
GGAGUUGAUCAAGACAGAGTT against S100a5	inactive: -0.443
CGGUAGAACUAACGUGAUUTT against Irx2	inactive: 0.9
GGUAUCAGUCGUCUGGGAGTT against Tas2r118	inactive: 0.986
CCACACGUGUUGAACUUGATT against Dnm2	inactive: -1.3
CAAGUACAAGCAGUUGACCTT against BC061237	inactive: -0.393
GGACUUGGGUUUCAAUUCCTT against Ddx27	inactive: 0.618
GGGAAUCAAUGAAGGAUUUTT against Calcrl	inactive: 1.26
GCCUUGAAGGACCACUAGATT against Itgb1bp1	inactive: 1.25
GCUGAGGGUAAAACCGGAATT against BC045600	inactive: -0.875
GGACGGGACUUACAUAGUGTT against 4933413G11Rik	inactive: 0.312
GCCUUGACGAUAGAUUAUUTT against Irf2	inactive: 0.387
GGCCCUCAUGAUUGCUAUGTT against Nek8	inactive: -0.279
GCCAGAAGCAGCUUACCUGTT against Sec1	inactive: 0.0348
GGACCUAUCUGAUGUCCAGTT against Il18rap	inactive: -0.403
GGGUAUAAGGACAAACAUUTT against 9030605H24Rik	inactive: 0.346
GCGGCCUCAUCAUUUCAUCTT against Actr5	inactive: 1.72
GGCAUUUCAACAUCAAUAUTT against V2r1b	inactive: -0.748
GGAAGUGGAAAAACUGGUGTT against Ddx1	inactive: 2.14
GACAAUACCAUAUCCUUUGTT against Olfr698	inactive: -0.225
GGAGAGGUUACUUUUGAGGTT against Slc25a13	inactive: 0.128
GGAAAUUAGUGCUGGGCGUTT against Erbb3	inactive: -0.466
GGAAAGAAGAAAGAACACATT against Tmpo	inactive: -0.13
GGACGAGGACCAGCUAGAATT against Txn2	inactive: -1.18
GCUUUAUGGAUCUACCAAATT against Fbxl3a	inactive: 0.216
GGUCAGGUUGCCAAGAAGGTT against Sbds	inactive: 0.3

Random excerpt: 7 entries already listed
Sequence	z-score
GGAAAUUAGUGCUGGGCGUTT against Erbb3	inactive: -0.466
CAAGUACAAGCAGUUGACCTT against BC061237	inactive: -0.393
GGACCUAUCUGAUGUCCAGTT against Il18rap	inactive: -0.403
GGACGAGGACCAGCUAGAATT against Txn2	inactive: -1.18
GCGGCCUCAUCAUUUCAUCTT against Actr5	inactive: 1.72
GGGUAUAAGGACAAACAUUTT against 9030605H24Rik	inactive: 0.346
GGACUUGGGUUUCAAUUCCTT against Ddx27	inactive: 0.618

Remaining list, next part:

Sequence	z-score
GCCGGAGAUUUAAUAUUGATT against Chml	inactive: 1.23
GGCAGAAAAUUGUUCUUAUTT against Cpt1a	inactive: -0.955
GGUGCAGGCUCUCAAGAAGTT against BC018462	inactive: 1.95
GCCUUCACGUGUGAAGAAUTT against 2810028N01Rik	inactive: -1.74
GCUGUUGUGUACGUGAGCCTT against Trfr2	inactive: 0.223
GGCAGAUUGAUAAAAUUCATT against Stag1	inactive: 0.46
CCAGAGUGUUCACAGAACATT against 4933430F08Rik	inactive: -0.117
GGCUGUUUGUGUUCUGUGCTT against Mst1	inactive: -0.246
GCUCGUUGUCCAUAGUAGATT against Olfr1273	inactive: 1.02
GGGUGCACUUUUGAUUCUATT against Ifitm7	inactive: 0.542
GGGUACAUCUAACUUGAAUTT against Tnfrsf10b	inactive: 0.37
GCCAAGUAUCAUCCAUUCCTT against Olfr23	inactive: 0.26
CGUGCUACGAACAUGCUGCTT against Mmd	inactive: 1.73
GCCAGUACAUUGUCCAUGATT against 1700029I01Rik	inactive: -0.146
GGGUGGAAGCUUUUUAAUATT against 0610016J10Rik	inactive: 0.175
CGAUUUUCACCAAUUGUGGTT against Diap2	inactive: 0.895
GGACUUAUUUCUCAAGUGUTT against Cd5	inactive: -0.31
GGUGUAAAGUAAUCAAGGCTT against 9430056A22Rik	inactive: 1.61
CCUGUCGUUUAACCCUGUCTT against Ttc11	inactive: -2.08
GGCUUUGUGCAAGGUCAUUTT against Hcrtr1	inactive: -0.229
GGUUCACAGAAUUUAAGUGTT against Clecsf6	inactive: -0.754
GCUAUUAAGACCUUGGGAGTT against 4833432P19Rik	inactive: -0.547
GGGAUCAUCUUGCUGUUCUTT against Cd79a	inactive: -0.16
GGAAUUAUGCUUCCAUCAUTT against Lmyc1	inactive: -0.654
